Measurements reported in PubChem BioAssay AID743121 (NCATS, 2013)

Test: 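Partners whose loss is lethal together with topoisomerase I blockade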 (primary screen)
Cell system: MDA-MB-231 cells, a human breast cancer line
Reagents: single siRNA against human genes, 20 nM siRNA (0.8 pmol per well)
Timing: 120 h (drug added 48 h after transfection, read 72 h later)
Challenge: camptothecin 20 nM (about EC30) for 72 h; vehicle 0.1% DMSO in parallel plates
Read-out: 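Cell viability by ATP luminescence (CellTiter-Glo) as % of non-targeting siRNA wells, and the log2 ratio of viability without drug over viability with camptothecin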
Direction: log2 vehicle/camptothecin viability: higher = stronger sensitisation to camptothecin; viability with camptothecin: higher = more viable cells
Call rule: 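Each gene scored by redundant siRNA activity (RSA) over its individual siRNA ratios; a gene is called active at p < 0.001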
Shown is an unselected part of about 26,000 reagents tested. 167 of all reagents (0.63%) count as active. 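Calls are per gene from RSA p-values that are not deposited; an individual active-marked siRNA can sensitise only weakly.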 The numbers tell different reagents against one gene apart. Further read-outs or replicates are left out here.

| gene symbol | reagent no. | log2 vehicle/camptothecin viability | viability with camptothecin (% of control) | call |
| --- | --- | --- | --- | --- |
| MAG (GeneID 4099) | 1 | -0.0163 | 79.1 | inactive |
| MAG (GeneID 4099) | 2 | -0.387 | 45.4 | inactive |
| MAG (GeneID 4099) | 3 | 0.0102 | 103 | inactive |
| MAG (GeneID 4099) | 4 | -0.252 | 54.5 | inactive |
| RPP38 (GeneID 10557) | 1 | -0.409 | 97.7 | inactive |
| RPP38 (GeneID 10557) | 2 | -0.316 | 93 | inactive |
| RPP38 (GeneID 10557) | 3 | -0.198 | 53.8 | inactive |
| RPP38 (GeneID 10557) | 4 | -0.128 | 83.9 | inactive |
| DYRK4 (GeneID 8798) | 1 | -0.423 | 91.1 | inactive |
| DYRK4 (GeneID 8798) | 2 | -0.185 | 46.6 | inactive |
| DYRK4 (GeneID 8798) | 3 | 0.182 | 85.4 | inactive |
| DYRK4 (GeneID 8798) | 4 | -0.419 | 95.9 | inactive |
| PANK2 (GeneID 80025) | 1 | -0.0183 | 87.6 | inactive |
| PANK2 (GeneID 80025) | 2 | -0.491 | 86.2 | inactive |
| PANK2 (GeneID 80025) | 3 | -0.426 | 66.3 | inactive |
| PANK2 (GeneID 80025) | 4 | -0.712 | 53.6 | inactive |

The list goes on, starting with the last 2 of the part before.
| gene symbol | reagent no. | log2 vehicle/camptothecin viability | viability with camptothecin (% of control) | call |
| --- | --- | --- | --- | --- |
| PANK2 (GeneID 80025) | 3 | -0.426 | 66.3 | inactive |
| PANK2 (GeneID 80025) | 4 | -0.712 | 53.6 | inactive |
| ASB1 (GeneID 51665) | 1 | -0.191 | 91.6 | inactive |
| ASB1 (GeneID 51665) | 2 | 0.102 | 49.2 | inactive |
| ASB1 (GeneID 51665) | 3 | -0.176 | 103 | inactive |
| ASB1 (GeneID 51665) | 4 | -0.0598 | 114 | inactive |
| NSUN4 (GeneID 387338) | 1 | -0.178 | 75.5 | inactive |
| NSUN4 (GeneID 387338) | 2 | -0.689 | 81.7 | inactive |
| NSUN4 (GeneID 387338) | 3 | -0.414 | 68.2 | inactive |
| NSUN4 (GeneID 387338) | 4 | 0.138 | 101 | inactive |
| HCN4 (GeneID 10021) | 1 | -0.108 | 53.3 | inactive |
| HCN4 (GeneID 10021) | 2 | -0.173 | 58 | inactive |
| HCN4 (GeneID 10021) | 3 | -0.226 | 53.3 | inactive |
| HCN4 (GeneID 10021) | 4 | -0.229 | 77.1 | inactive |
